No constants are given. Whether binding was seen depends on the method and setting. In cells and extracts the contact can be indirect. Some entries that bind do so weakly or less than the wild type. Values belong to the molecule of their own block, whether it stands above or below them.
Experiments:
[1] = target: T1, DLGAP5 (mouse (endogenous in primary hepatocytes and AML12)) (UniProt Q8K4R9); assay: co-IP; endogenous proteins in lysates of primary hepatocytes and AML12 cells; Pierce IP Lysis Buffer, precleared with protein A magnetic beads, indicated antibody 2 h at room temperature, Western blot; anti-IgG as control
T1 sequence: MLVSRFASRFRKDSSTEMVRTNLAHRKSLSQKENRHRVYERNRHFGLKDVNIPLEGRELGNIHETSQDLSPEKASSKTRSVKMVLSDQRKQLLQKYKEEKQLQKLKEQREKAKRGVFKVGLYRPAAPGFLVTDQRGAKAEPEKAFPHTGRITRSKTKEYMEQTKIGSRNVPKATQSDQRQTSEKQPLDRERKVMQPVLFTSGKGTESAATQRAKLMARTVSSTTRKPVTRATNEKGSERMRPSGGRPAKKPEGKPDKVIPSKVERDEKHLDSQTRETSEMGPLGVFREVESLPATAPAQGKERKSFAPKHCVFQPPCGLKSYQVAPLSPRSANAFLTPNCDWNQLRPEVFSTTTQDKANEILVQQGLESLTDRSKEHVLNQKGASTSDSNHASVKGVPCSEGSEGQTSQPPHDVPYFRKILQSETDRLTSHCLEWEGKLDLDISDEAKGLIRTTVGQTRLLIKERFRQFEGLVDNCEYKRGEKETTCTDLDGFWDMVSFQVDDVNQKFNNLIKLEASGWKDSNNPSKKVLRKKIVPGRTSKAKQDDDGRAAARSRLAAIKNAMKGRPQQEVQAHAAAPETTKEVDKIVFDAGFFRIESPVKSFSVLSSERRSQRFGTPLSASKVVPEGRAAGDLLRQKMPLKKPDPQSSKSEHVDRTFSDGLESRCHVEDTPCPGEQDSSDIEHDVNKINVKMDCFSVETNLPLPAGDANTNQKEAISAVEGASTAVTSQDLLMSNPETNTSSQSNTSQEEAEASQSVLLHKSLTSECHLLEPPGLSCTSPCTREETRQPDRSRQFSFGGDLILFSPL

Chains of the proteins cited; added tags and fusions are not shown.
UniProt Q8R4B8: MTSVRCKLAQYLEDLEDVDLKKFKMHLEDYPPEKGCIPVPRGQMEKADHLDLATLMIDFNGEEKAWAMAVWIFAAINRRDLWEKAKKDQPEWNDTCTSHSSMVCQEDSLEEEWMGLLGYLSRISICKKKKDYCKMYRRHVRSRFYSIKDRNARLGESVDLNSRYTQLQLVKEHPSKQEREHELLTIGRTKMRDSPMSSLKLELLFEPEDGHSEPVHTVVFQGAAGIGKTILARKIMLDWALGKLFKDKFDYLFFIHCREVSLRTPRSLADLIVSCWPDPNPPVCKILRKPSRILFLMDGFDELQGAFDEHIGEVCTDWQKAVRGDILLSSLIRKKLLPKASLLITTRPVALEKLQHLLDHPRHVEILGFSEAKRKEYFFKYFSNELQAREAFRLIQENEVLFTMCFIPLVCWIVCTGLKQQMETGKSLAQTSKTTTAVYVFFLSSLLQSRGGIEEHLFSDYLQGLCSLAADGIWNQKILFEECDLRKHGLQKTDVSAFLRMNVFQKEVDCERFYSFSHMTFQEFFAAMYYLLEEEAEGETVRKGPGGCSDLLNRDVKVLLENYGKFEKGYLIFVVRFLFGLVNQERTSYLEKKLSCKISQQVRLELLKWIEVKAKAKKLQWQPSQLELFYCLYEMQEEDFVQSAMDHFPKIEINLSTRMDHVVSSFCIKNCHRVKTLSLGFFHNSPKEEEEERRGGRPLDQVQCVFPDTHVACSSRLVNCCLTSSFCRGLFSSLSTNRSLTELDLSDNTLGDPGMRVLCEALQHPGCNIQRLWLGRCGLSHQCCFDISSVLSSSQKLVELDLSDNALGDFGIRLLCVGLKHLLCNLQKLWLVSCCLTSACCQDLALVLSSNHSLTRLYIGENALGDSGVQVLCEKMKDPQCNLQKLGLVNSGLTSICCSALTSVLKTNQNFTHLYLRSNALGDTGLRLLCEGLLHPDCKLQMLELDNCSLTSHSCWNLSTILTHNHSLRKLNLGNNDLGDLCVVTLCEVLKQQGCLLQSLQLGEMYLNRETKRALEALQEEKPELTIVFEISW
UniProt Q8C3P7: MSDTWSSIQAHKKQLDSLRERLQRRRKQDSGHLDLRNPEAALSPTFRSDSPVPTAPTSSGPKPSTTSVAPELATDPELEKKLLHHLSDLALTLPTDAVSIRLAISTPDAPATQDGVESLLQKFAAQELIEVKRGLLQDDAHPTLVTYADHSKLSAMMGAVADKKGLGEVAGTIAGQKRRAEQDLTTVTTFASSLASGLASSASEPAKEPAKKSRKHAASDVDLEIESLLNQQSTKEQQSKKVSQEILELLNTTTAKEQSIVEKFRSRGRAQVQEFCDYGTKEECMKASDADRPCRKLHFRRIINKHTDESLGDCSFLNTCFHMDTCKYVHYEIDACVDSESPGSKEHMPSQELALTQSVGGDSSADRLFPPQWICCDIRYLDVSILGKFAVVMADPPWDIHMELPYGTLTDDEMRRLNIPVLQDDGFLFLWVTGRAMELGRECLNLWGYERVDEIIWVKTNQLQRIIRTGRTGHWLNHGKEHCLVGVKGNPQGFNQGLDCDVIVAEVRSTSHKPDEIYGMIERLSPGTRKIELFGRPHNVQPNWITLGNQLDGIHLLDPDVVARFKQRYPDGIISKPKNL

CASPASE1-CARD (mouse) = target: T2, CASPASE1-CARD (mouse (from the printed UniProt entry)) (UniProt P29452); assay: co-IP; truncated domain constructs (pcDNA3.1) transfected into primary hepatocytes, Dlgap5-overexpressed and control; Pierce IP Lysis Buffer, protein A magnetic beads, indicated antibody, Western blot
T2 sequence: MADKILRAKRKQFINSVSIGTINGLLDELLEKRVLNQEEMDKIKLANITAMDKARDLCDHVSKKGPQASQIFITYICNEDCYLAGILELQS

- binding [1]: binds
Molecule: NOD-like receptor family pyrin domain containing 3 (NLRP3) (from UniProt Q8R4B8 1-1033)

- binding [1]: binds
Molecule: methyltransferase-like 3 (METTL3) (from UniProt Q8C3P7 1-580) (enzyme)

- binding (CASPASE1-CARD (mouse)): binds
B1: ASC-CARD (domain or fragment, UniProt Q9EPB4 105-193)
chain: STARTGHFVDQHRQALIARVTEVDGVLDALHGSVLTEGQYQAVRAETTSQDKMRKLFSFVPSWNLTCKDSLLQALKEIHPYLVMDLEQS

From article PMC12435577
